From the supplement of paper PMC10849652
The other results are listed elsewhere or left out.

Sequences of proteins named here, by UniProt entry; tags and fusion partners are left off. A change or cut given only in a name is not applied to a line headed by its entry.
UniProt O60641: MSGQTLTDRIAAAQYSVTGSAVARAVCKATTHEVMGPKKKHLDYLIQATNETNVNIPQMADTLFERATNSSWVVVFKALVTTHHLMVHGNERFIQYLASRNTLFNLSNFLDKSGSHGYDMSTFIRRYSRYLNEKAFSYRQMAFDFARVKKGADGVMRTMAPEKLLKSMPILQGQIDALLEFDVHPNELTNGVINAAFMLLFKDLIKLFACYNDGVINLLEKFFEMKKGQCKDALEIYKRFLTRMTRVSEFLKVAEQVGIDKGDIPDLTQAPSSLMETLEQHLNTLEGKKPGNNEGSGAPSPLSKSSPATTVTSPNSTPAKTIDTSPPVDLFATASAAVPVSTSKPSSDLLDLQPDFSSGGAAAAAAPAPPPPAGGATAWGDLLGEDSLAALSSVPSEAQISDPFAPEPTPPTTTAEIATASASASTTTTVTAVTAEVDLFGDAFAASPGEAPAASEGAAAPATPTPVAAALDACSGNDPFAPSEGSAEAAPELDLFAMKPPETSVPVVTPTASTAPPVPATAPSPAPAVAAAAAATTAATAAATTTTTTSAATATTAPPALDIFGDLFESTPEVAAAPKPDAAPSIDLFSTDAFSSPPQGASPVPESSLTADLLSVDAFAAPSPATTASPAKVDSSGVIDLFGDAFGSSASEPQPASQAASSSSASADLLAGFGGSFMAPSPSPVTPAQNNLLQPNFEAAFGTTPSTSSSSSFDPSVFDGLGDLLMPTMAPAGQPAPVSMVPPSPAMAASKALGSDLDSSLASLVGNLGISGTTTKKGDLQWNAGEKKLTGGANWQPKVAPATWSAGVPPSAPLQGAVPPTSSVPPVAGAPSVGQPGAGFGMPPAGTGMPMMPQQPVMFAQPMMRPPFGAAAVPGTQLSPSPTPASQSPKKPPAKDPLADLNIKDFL
UniProt O95219: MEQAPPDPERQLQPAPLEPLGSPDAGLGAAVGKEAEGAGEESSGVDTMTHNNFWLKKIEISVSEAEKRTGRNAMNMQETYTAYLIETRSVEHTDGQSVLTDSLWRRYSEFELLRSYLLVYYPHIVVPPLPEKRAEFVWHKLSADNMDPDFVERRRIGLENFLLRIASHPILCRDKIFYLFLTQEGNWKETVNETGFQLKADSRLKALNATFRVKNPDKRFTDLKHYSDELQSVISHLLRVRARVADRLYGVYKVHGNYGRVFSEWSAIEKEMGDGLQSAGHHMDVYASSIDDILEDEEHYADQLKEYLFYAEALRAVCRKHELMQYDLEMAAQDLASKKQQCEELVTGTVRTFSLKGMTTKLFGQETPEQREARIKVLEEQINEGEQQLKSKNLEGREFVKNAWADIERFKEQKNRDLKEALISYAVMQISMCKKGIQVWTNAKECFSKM
UniProt B2RUZ4: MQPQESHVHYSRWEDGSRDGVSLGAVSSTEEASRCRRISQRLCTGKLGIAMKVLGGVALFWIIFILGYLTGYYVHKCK
UniProt Q92966: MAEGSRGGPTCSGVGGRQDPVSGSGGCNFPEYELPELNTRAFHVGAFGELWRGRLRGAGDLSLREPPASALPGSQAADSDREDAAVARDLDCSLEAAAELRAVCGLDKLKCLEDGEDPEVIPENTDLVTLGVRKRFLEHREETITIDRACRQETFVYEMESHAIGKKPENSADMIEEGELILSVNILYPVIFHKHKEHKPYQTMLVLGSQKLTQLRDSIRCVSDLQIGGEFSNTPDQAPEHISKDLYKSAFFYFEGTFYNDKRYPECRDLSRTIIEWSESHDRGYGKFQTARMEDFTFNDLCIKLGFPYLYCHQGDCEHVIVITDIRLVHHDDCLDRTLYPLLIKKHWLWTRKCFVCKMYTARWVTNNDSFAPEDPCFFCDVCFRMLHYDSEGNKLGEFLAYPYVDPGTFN
UniProt P35712: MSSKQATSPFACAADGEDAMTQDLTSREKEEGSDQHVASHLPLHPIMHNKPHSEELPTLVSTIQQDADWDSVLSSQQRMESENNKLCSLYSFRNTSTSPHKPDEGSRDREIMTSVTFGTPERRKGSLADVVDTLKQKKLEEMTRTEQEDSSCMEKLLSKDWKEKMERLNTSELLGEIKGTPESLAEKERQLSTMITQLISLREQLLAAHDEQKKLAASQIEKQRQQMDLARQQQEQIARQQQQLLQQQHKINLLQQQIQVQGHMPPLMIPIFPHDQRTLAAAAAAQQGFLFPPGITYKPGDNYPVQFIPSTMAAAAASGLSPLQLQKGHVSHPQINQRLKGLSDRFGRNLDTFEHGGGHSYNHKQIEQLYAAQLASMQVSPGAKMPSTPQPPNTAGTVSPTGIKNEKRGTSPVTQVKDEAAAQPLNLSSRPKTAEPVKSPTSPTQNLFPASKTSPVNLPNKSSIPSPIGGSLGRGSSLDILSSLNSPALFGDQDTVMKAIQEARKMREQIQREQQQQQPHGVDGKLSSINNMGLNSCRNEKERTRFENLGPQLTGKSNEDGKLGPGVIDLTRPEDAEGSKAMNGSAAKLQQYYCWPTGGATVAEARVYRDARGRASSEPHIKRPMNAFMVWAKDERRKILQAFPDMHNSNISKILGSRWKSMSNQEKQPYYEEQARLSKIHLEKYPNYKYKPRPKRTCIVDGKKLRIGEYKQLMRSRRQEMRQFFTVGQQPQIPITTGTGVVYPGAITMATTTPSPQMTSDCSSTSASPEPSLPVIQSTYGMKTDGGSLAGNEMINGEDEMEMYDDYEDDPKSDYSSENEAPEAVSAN
UniProt Q9BT81: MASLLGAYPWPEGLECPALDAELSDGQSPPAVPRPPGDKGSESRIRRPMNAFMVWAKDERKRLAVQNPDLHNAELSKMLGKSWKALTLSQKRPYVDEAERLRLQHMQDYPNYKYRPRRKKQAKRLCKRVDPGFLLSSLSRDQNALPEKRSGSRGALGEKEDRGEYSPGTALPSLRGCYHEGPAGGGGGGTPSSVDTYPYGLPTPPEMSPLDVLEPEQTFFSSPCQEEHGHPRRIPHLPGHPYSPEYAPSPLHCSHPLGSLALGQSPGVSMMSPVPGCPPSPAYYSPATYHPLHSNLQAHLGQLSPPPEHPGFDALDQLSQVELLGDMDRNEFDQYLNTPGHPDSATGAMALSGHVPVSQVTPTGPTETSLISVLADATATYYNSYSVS
UniProt Q8N5G0: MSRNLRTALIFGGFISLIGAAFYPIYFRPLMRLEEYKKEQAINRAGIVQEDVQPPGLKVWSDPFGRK
UniProt Q9Y5W8: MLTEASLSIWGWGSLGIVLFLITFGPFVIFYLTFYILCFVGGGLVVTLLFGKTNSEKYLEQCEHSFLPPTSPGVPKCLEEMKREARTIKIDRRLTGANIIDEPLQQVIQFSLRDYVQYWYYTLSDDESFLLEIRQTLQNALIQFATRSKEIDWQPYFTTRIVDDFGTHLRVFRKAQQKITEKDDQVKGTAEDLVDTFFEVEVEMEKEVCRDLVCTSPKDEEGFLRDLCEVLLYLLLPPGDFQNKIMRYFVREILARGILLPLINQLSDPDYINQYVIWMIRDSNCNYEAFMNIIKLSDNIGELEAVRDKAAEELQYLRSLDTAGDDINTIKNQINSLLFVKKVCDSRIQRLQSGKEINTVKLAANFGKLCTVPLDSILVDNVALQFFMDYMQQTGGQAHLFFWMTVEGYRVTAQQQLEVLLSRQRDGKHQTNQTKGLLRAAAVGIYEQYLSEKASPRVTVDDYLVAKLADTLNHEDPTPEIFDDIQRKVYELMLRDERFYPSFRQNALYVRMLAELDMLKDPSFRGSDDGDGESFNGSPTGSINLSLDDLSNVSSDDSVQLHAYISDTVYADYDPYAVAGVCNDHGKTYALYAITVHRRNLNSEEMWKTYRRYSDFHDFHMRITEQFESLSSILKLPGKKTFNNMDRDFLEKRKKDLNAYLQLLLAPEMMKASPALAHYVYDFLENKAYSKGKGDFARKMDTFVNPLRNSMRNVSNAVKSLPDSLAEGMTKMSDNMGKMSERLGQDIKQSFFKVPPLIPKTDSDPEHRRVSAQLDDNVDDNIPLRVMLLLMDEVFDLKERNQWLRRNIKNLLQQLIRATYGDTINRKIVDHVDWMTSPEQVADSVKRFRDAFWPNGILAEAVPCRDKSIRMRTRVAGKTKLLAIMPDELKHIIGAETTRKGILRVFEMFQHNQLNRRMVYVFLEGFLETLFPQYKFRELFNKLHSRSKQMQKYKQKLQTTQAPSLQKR
UniProt O60504: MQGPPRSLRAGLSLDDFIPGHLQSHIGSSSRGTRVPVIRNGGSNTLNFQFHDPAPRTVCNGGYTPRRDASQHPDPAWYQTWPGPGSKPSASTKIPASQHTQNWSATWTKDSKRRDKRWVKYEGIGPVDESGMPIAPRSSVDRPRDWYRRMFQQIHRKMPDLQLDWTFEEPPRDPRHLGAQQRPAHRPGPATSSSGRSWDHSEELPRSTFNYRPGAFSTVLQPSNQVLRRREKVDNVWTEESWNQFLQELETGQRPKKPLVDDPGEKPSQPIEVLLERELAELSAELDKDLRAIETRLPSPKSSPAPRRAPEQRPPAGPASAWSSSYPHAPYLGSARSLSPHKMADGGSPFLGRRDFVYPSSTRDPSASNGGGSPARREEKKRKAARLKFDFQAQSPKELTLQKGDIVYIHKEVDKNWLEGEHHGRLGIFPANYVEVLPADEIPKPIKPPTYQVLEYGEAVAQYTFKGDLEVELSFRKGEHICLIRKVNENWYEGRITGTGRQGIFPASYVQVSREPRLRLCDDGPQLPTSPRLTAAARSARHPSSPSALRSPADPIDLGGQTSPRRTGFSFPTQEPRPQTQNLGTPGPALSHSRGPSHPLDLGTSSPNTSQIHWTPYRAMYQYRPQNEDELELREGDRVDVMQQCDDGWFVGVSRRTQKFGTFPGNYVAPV
UniProt O60906: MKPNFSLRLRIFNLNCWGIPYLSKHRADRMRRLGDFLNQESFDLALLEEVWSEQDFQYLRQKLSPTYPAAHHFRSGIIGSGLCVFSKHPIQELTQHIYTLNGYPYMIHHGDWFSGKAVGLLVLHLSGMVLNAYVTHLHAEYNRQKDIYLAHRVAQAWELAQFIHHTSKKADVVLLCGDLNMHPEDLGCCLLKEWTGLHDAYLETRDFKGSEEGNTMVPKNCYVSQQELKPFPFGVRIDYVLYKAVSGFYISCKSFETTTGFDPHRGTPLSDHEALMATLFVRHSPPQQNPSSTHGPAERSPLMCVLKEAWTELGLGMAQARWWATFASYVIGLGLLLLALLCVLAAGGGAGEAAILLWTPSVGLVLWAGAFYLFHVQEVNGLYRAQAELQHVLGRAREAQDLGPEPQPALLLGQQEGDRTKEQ
UniProt Q3SY56: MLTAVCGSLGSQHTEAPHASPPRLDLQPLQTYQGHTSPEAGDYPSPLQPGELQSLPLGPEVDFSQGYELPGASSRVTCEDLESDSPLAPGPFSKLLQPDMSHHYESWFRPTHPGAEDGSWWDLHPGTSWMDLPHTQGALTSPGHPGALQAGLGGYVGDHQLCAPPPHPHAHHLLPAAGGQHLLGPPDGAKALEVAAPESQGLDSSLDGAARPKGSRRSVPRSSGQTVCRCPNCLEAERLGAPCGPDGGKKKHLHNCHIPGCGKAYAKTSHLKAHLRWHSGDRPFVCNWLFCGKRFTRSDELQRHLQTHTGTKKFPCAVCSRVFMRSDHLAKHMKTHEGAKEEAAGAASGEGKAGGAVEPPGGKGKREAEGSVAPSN
UniProt Q7Z3B0: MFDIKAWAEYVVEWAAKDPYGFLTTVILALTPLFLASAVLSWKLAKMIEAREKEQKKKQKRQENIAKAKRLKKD
UniProt O00161: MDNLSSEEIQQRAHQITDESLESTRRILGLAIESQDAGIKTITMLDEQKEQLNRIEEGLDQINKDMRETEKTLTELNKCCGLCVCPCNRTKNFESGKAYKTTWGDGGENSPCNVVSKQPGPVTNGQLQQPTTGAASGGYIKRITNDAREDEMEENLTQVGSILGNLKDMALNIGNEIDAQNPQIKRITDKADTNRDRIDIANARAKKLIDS
UniProt Q96RF0: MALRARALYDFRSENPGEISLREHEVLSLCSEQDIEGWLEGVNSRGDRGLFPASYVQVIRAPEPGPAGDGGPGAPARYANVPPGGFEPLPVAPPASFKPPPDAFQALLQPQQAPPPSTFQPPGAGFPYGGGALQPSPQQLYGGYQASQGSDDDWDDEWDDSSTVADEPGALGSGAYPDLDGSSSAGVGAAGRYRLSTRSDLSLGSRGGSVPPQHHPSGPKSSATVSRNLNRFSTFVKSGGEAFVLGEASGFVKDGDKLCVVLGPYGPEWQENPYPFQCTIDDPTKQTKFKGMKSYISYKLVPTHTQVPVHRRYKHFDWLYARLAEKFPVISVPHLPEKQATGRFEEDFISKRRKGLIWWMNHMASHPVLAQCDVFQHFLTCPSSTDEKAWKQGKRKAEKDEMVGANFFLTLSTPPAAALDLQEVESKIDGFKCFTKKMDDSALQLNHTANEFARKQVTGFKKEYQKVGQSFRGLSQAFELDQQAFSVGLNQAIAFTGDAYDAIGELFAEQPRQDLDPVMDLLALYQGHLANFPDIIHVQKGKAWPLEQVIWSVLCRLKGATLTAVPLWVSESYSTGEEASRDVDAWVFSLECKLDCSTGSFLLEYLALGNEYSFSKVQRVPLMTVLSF

Columns and labels:
Experiment in all cases: log2 fold change, soluble protein after heating vs DMSO (PISA); higher = thermal stabilisation; K562 lysate, 10 uM; active = over 0.2 and 3.5 SD of the protein, either way, in both replicates (recomputed)
erlotinib = compound: C#Cc1cccc(Nc2ncnc3cc(OCCOC)c(OCCOC)cc23)c1 [erlotinib]
Outline: (§1)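 Soluble protein was defined as the supernatant remaining after 21,000xg for 90 min, following pooling of heated aliquots and adjustment to 0.5% NP-40 at 4°C. Before that, crude K562 extract at 1 mg/mL protein in PBS pH 7.4 with 1 mM MgCl2 was treated with 10 μM compound for 30 min and heated for 3 min across 48°C-58°C. Quantification used TMTpro 16plex LC-MS/MS with channel sums equalised, and values are log-two fold changes in thermal stability relative to solvent controls from duplicates.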

[1] = compound: C/C(=N\NC(=O)C1=CC(=CC=C1)S(=O)(=O)N2CCOCC2)/C3=C(C=CC(=C3)Cl)O
Outline: as §1

[2] = compound: C1=CC(=CC=C1C2=NC3=C(N2)C=C(C=C3)C(=O)N)OC4=CC=C(C=C4)Cl
Outline: as §1

[3] = compound: C1=CC2=C(C=CC(=C2)/C=C\3/C(=O)NC(=NCC4=CC=CS4)S3)N=C1
Outline: as §1

[4] = compound: C1=CC2=NC=CN=C2C=C1/C=C/3\C(=O)NC(=O)S3
Outline: as §1

[5] = compound: C1=CC=C(C=C1)C2=NC(=C(N2)C3=CC=NC=C3)C4=CC(=C(C=C4)Cl)O
Outline: as §1

[6] = compound: C1=CC=C2C(=C1)C3=NNC4=CC=CC(=C43)C2=O
Outline: as §1

[7] = compound: C1CCN(C1)C(=O)NC2=CC=CC(=C2)NC3=NC=C(C(=N3)NCCC4=CN=CN4)Br
Outline: as §1

[8] = compound: C1CN(CCC1(CC2=CC=C(C=C2)Cl)N)C3=NC=NC4=C3C=CN4
Outline: as §1

IRAK-1-4 Inhibitor I = compound: C1COCCN1CCN2C3=CC=CC=C3N=C2NC(=O)C4=CC(=CC=C4)[N+](=O)[O-] [IRAK-1-4 Inhibitor I]
Outline: as §1

ibrutinib = compound: C=CC(=O)N1CCC[C@@H](n2nc(-c3ccc(Oc4ccccc4)cc3)c3c(N)ncnc32)C1 [ibrutinib]
Outline: as §1

[9] = compound: CC(=O)c1cnc2ccc(-c3cc(Cl)c(O)c(Cl)c3)nc2c1N[C@H]1CC[C@H](CN(C)C)CC1
Outline: as §1

ralimetinib = compound: CC(C)(C)Cn1c(N)nc2ccc(-c3[nH]c(C(C)(C)C)nc3-c3ccc(F)cc3)nc21 [ralimetinib]
Outline: as §1

[10] = compound: CC(C)(O)CC(=O)NCCn1ccc2ncnc(Nc3ccc(Oc4cccc(C(F)(F)F)c4)c(Cl)c3)c21
Outline: as §1

[11] = compound: CC(C)C1=C2N=C(C=C(N2N=C1)NCC3=CC=CC=C3)NCCCCCCN
Outline: as §1

[12] = compound: CC1=C(C(CC(=O)N1)C2=CC=C(C=C2)C(F)(F)F)C(=O)NC3=C(C=C4C(=C3)C=NN4)F
Outline: as §1

[13] = compound: CC1=C(C2=C(C=C1)C(=O)C3=CC=CC=C3N2CCCN)C
Outline: as §1

[14] = compound: CC1=C(C=C(C=C1)NC(=O)C2=CC(=CC=C2)C(C)(C)C#N)NC3=CC4=C(C=C3)N=CN(C4=O)C
Outline: as §1

[15] = compound: CC1=C(C=C(C=C1)NC(=O)C2=CC(=CC=C2)N(C)C)NC(=O)C3=CC=C(C=C3)O
Outline: as §1

[16] = compound: CC1=CC=C(C=C1)SC2=C3C=C(SC3=CN=C2)C(=O)N
Outline: as §1

Measured: log2 fold change

SNAP91 (UniProt O60641)
inactive: erlotinib -0.053 | [1] -0.092 | [2] 0 | [3] 0.028 | [4] 0.031 | [5] -0.111 | [6] -0.01 | [7] -0.002 | [8] -0.054 | IRAK-1-4 Inhibitor I 0.025 | ibrutinib -0.098 | [9] 0.04 | ralimetinib -0.014 | [10] -0.053 | [11] -0.02 | [12] -0.009 | [13] -0.069 | [14] 0.023 | [15] -0.015 | [16] -0.023

SNX4 (UniProt O95219)
inactive: erlotinib -0.046 | [1] 0.049 | [2] 0.004 | [3] -0.045 | [4] -0.013 | [5] 0.035 | [6] -0.055 | [7] 0.007 | [8] 0.008 | IRAK-1-4 Inhibitor I 0.059 | ibrutinib -0.018 | ralimetinib -0.056 | [10] -0.092 | [11] -0.023 | [12] 0.047 | [13] 0.006 | [14] -0.101 | [15] -0.054

SMIM1 (UniProt B2RUZ4)
inactive: erlotinib 0.172 | [2] -0.145 | [4] -0.114 | [5] 0.063 | [7] 0.086 | [8] -0.016 | IRAK-1-4 Inhibitor I -0.214 | ibrutinib 0.018 | [9] 0.005 | ralimetinib 0.054 | [10] 0.036 | [11] 0.081 | [12] -0.132 | [14] -0.042 | [15] -0.021 | [16] 0.058

SNAPC3 (UniProt Q92966)
inactive: erlotinib -0.047 | [2] -0.04 | [4] -0.125 | [7] 0.104 | [8] 0.002 | ibrutinib -0.213 | [11] 0.084 | [12] 0.011 | [13] -0.048 | [14] 0.028

SOX6 (UniProt P35712)
inactive: erlotinib -0.034 | [1] -0.112 | [2] -0.183 | [3] 0.209 | [4] -0.139 | [5] -0.046 | [6] -0.227 | [7] -0.071 | [8] 0.071 | IRAK-1-4 Inhibitor I -0.006 | ibrutinib 0.042 | ralimetinib 0.002 | [10] -0.002 | [11] 0.338 | [12] 0.171 | [13] 0.035 | [14] 0.147 | [15] 0.01

SMU1 isoform 2 (UniProt Q2TAY7)
inactive: erlotinib 0.14 | [1] -0.041 | [2] 0.046 | [3] -0.028 | [4] 0.048 | [5] 0.25 | [6] -0.146 | [7] -0.217 | [8] 0.016 | IRAK-1-4 Inhibitor I 0.043 | ibrutinib 0.008 | [9] 0.012 | ralimetinib -0.054 | [10] -0.099 | [11] -0.138 | [12] -0.183 | [15] -0.082 | [16] -0.05

SNX24 (UniProt Q9Y343)
inactive: erlotinib -0.13 | [2] -0.121 | [4] 0.004 | [5] -0.016 | [7] 0.069 | [8] 0.001 | IRAK-1-4 Inhibitor I -0.034 | ibrutinib -0.008 | ralimetinib 0.048 | [10] 0.054 | [11] -0.185 | [12] -0.037 | [13] 0.008 | [14] -0.035 | [15] 0.008

SOX5 (UniProt P35711)
active: [3] 0.38
inactive: erlotinib -0.169 | [1] 0.08 | [2] 0.025 | [4] 0.131 | [5] 0.059 | [6] -0.239 | [7] 0.028 | [8] 0.154 | IRAK-1-4 Inhibitor I 0.044 | ibrutinib -0.064 | [9] 0.14 | ralimetinib -0.049 | [10] 0.02 | [11] 0.091 | [13] 0.053 | [14] 0.036 | [15] 0.088 | [16] -0.105

SOX7 isoform 2 (UniProt Q9BT81)
inactive: erlotinib -0.047 | [1] -0.085 | [2] 0.174 | [3] -0.039 | [4] -0.073 | [5] 0.154 | [6] 0.013 | IRAK-1-4 Inhibitor I -0.076 | ibrutinib 0.101 | ralimetinib -0.057 | [10] -0.069 | [11] 0.013 | [12] 0.108 | [15] -0.094

SMIM20 isoform 2 (UniProt Q8N5G0)
inactive: erlotinib 0.165 | [1] 0.071 | [2] 0.009 | [3] -0.06 | [4] 0.043 | [6] -0.015 | ibrutinib 0.033 | [9] -0.06 | [11] 0.099 | [12] 0.045 | [13] 0 | [14] -0.062 | [16] 0.025

SNX13 (UniProt Q9Y5W8)
inactive: erlotinib 0.078 | [2] -0.142 | [4] 0 | [5] 0.017 | IRAK-1-4 Inhibitor I 0.067 | ibrutinib -0.056 | ralimetinib 0.053 | [10] -0.047 | [11] -0.04 | [13] -0.021 | [14] -0.012 | [15] -0.006

SORBS3 (UniProt O60504)
inactive: erlotinib -0.01 | [1] 0.028 | [2] 0.021 | [3] 0.018 | [4] -0.054 | [5] -0.092 | [6] 0.057 | [7] 0.09 | [8] 0.129 | IRAK-1-4 Inhibitor I 0.088 | ibrutinib -0.005 | [9] 0.067 | ralimetinib 0.099 | [10] -0.113 | [11] -0.035 | [13] -0.158 | [14] 0.046 | [15] -0.05 | [16] -0.114

SMPD2 (UniProt O60906)
active: erlotinib -1.38
inactive: [2] -0.551 | [5] -0.112 | [7] -0.024 | [8] 0.022 | IRAK-1-4 Inhibitor I 0.065 | [9] 0.01 | ralimetinib -0.03 | [10] 0.067 | [11] 0.388 | [13] 0.077 | [15] -0.113 | [16] 0.058

SNX30 (UniProt Q5VWJ9)
inactive: erlotinib -0.066 | [2] -0.004 | [4] -0.134 | [5] 0.05 | IRAK-1-4 Inhibitor I -0.023 | ibrutinib -0.064 | [9] 0.054 | ralimetinib 0.125 | [10] -0.046 | [11] -0.056 | [12] 0.019 | [13] 0.025 | [14] -0.073 | [15] 0.036 | [16] -0.043

SP6 (UniProt Q3SY56)
inactive: erlotinib 0.034 | [1] 0.05 | [2] 0.033 | [3] -0.104 | [5] 0.023 | [6] 0.073 | [7] 0.05 | [8] 0.071 | IRAK-1-4 Inhibitor I 0.069 | [9] 0.007 | ralimetinib -0.03 | [10] -0.034 | [11] -0.037 | [12] -0.131 | [13] -0.147 | [14] 0.067 | [15] -0.05 | [16] -0.023

SMIM15 (UniProt Q7Z3B0)
inactive: erlotinib 0.003 | [1] 0.118 | [2] 0.008 | [3] -0.089 | [5] -0.067 | [6] 0.055 | [7] 0.016 | [8] 0.024 | IRAK-1-4 Inhibitor I 0.181 | [9] -0.065 | ralimetinib 0.129 | [10] -0.148 | [11] 0.029 | [12] -0.011 | [13] -0.047 | [14] -0.011 | [15] -0.001 | [16] -0.005

SNX29 (UniProt Q8TEQ0)
inactive: erlotinib -0.03 | [2] -0.047 | [5] -0.051 | [7] 0.079 | [8] 0.038 | IRAK-1-4 Inhibitor I -0.017 | ralimetinib 0.155 | [10] 0.031 | [11] 0.097 | [12] -0.02 | [14] 0.074 | [15] -0.191

Copied from the results shown (two entries):
SNX4 (UniProt O95219)
inactive: erlotinib -0.046 | [1] 0.049 | [2] 0.004 | [3] -0.045 | [4] -0.013 | [5] 0.035 | [6] -0.055 | [7] 0.007 | [8] 0.008 | IRAK-1-4 Inhibitor I 0.059 | ibrutinib -0.018 | ralimetinib -0.056 | [10] -0.092 | [11] -0.023 | [12] 0.047 | [13] 0.006 | [14] -0.101 | [15] -0.054

SMIM1 (UniProt B2RUZ4)
inactive: erlotinib 0.172 | [2] -0.145 | [4] -0.114 | [5] 0.063 | [7] 0.086 | [8] -0.016 | IRAK-1-4 Inhibitor I -0.214 | ibrutinib 0.018 | [9] 0.005 | ralimetinib 0.054 | [10] 0.036 | [11] 0.081 | [12] -0.132 | [14] -0.042 | [15] -0.021 | [16] 0.058

Additional records:

SNAP23 isoform 2 (UniProt O00161)
inactive: erlotinib 0.042 | [1] -0.019 | [2] 0.27 | [3] -0.006 | [5] -0.071 | [6] -0.117 | [7] 0.104 | [8] -0.08 | IRAK-1-4 Inhibitor I 0.057 | [9] -0.045 | ralimetinib -0.071 | [10] 0.095 | [11] -0.029 | [12] 0.306 | [15] 0.027 | [16] 0.028

SNX18 isoform 2 (UniProt Q96RF0)
inactive: erlotinib 0.064 | [1] 0.104 | [2] -0.056 | [3] -0.134 | [6] 0.013 | [7] -0.054 | [8] -0.109 | [9] 0.061 | [11] 0.015 | [12] 0.016 | [14] -0.197 | [16] 0.154

SNX25 (UniProt Q9H3E2)
inactive: erlotinib 0.018 | [2] -0.045 | [5] -0.048 | [7] -0.117 | [8] -0.002 | IRAK-1-4 Inhibitor I 0.082 | ralimetinib -0.118 | [10] 0.042 | [11] -0.004 | [13] -0.011 | [14] -0.155 | [15] 0.004
